According to PubChem BioAssay AID540256 (National Center for Advancing Translational Sciences (NCATS), 2011):
In all, about 300,000 compounds went through this assay and about 3,700 (1.2%) were called active. The shares of active, inactive and inconclusive entries below differ from those in the screen. Calls come from the whole dose curve; tested in HEK293 cells. Potencies of inconclusive entries are doubtful fits and often do not repeat.

Assay: qHTS for Inhibitors of binding or entry into cells for Lassa Virus; note: nearly all actives have a fitted effect of over 50% in size
Conditions: Lassa virus pseudotype entry inhibition, cell reporter; series mostly up to 37.9 µM
Potency is the fitted concentration of half-maximal effect.

| SMILES | Potency |
| --- | --- |
| Cc1cccc(C(=O)NCC(=O)OCC(=O)NC2CCCCC2)c1 | inconclusive: 35.5 µM [activator, single point] |
| CN(C)C(=O)C#Cc1ccccc1 | inconclusive: 1.26 µM [activator, single point] |
| CCn1c(=NC(=O)c2ccc(S(=O)(=O)N3CCOCC3)cc2)sc2cccc(OC)c21 | inconclusive: 32.6 µM [inhibitor, single point] |
| Cc1nc(S(=O)(=O)N(C)Cc2ccccc2)c(C#N)c(C)c1Cl | inactive |
| Cc1ccc(-n2nc(C)c3c(C(F)(F)F)cc(-c4cccnc4)nc32)cc1Cl | inactive |
| COc1cccc(OC)c1C(=O)Nc1cc(C)nn1-c1nc2ccccc2[nH]1 | active: 11.2 µM |
| FC(F)(F)c1ccc(N2CCN(c3cc(-c4ccccc4)nc4ncnn34)CC2)nc1 | inconclusive: 18.3 µM [inhibitor, single point] |
| CCOc1cc(/C=C(/C#N)c2nc3ccccc3[nH]2)ccc1Oc1ccc([N+](=O)[O-])cn1 | inconclusive: 23.1 µM [inhibitor, single point] |
| CCCCCN(C(=O)CN1CCC(Cc2ccccc2)CC1)c1c(N)n(CCCC)c(=O)[nH]c1=O | inconclusive: 35.5 µM [inhibitor, partial curve, poor fit] |
| CC1=NN(c2ccccc2)C(=O)/C1=C\C=C\c1ccccc1 | inconclusive: 22.4 µM [inhibitor, single point] |
| N=c1n(Cc2ccc(Cl)cc2)c2ccccc2n1CC(O)c1ccco1 (stereo unspecified) | inconclusive: 29.1 µM [inhibitor, single point] |
| COc1ccc(C)cc1N(C(=O)COc1ccccc1)c1nc2ccccc2s1 | inactive |
| CCOC(=O)c1cn[nH]c1NC(=S)Nc1ccccc1 | inconclusive: 3.16 µM [inhibitor, single point] |
| O=C1C(=C2SCCCS2)CC/C1=C\c1ccc(F)cc1 | active: 1.12 µM |
| O=C(Nc1cccc(C(F)(F)F)c1)C1CCCN(c2ncccn2)C1 (stereo unspecified) | inactive |
| O=C(/C=C/c1ccc(Cl)cc1)NCc1cccs1 | active: 5.8 µM |
| CC1CCN(C(=O)CNC(=O)c2cccc(OC(F)F)c2)CC1 | inactive |
| Cc1ccc(/C=N/NC(=S)N2CCOCC2)cc1 | inconclusive: 10 µM [activator, partial curve, poor fit] |
| COc1cccc(Nc2nc(N)nc(CCl)n2)c1 | inconclusive: 31.6 µM [inhibitor, single point] |
| Cc1ccc(/C=C/c2nnc(-c3ccccc3)o2)cc1 | inconclusive: 32.6 µM [inhibitor, single point] |
| CN(C)N1C(N)=C(C#N)C(c2ccccc2)C2=C1CC(C)(C)CC2=O (stereo unspecified) | inactive |
| CCOc1ccc(CN(C)C(=O)CNC(=O)Cc2cccc3ccccc23)cc1 | inconclusive: 20 µM [inhibitor, partial curve, poor fit] |
| COc1ccc(C(C[N+](=O)[O-])c2c(-c3ccccc3)cc3ccccn23)cc1 (stereo unspecified) | inactive |

| SMILES | Potency |
| --- | --- |
| COC[C@H]1OC(=O)c2coc3c2[C@@]1(C)C1=C(C3=O)[C@@H]2CCC(=O)[C@@]2(C)C[C@H]1OC(C)=O | inconclusive: 0.891 µM [inhibitor, full curve] |
| Cc1[nH]c(=O)c(C#N)cc1-c1ccc2nccn2c1 | inconclusive: 0.0326 µM [activator, full curve] |
| COc1ccc(OC)c(NC(=O)CSc2nc(C)cs2)c1 | inactive |
| O=C(NCCCOc1cccc(CN2CCCCC2)c1)c1ccc(Cl)c(Cl)c1 | inconclusive: 11.2 µM [inhibitor, partial curve, poor fit] |
| Cc1cccc(NC(=S)NCCc2ccccc2)n1 | inconclusive: 7.08 µM [inhibitor, partial curve, poor fit] |
| CCCCOC(=O)c1ccc(NC(=O)c2sc3nc(C)cc(C)c3c2N)cc1 | inconclusive: 5.62 µM [inhibitor, single point] |
| CC(Sc1nc(-c2ccccc2)cc(C(F)(F)F)n1)C(=O)N1CCOCC1 (stereo unspecified) | inconclusive: 0.447 µM [inhibitor, partial curve, poor fit] |
| O=C(Cn1c(=O)nc(-c2ccccc2)c2ccccc21)Nc1ccc(Cl)cc1F | inactive |
| COc1ccc(C(=O)Nn2c(C)ccc2C)cc1OC | inactive |
| CCOc1ccc(CCNC(=O)COC(=O)Cn2nc(C)c([N+](=O)[O-])c2C)cc1OCC | inactive |
| Nc1nc(CN2CCN(c3ccccc3F)CC2)nc(Nc2ccccc2)n1 | inconclusive: 3.26 µM [inhibitor, full curve, poor fit] |
| CC(=O)NC12CC3CC(C1)CC(C(=O)N1CCN(S(=O)(=O)c4ccc(C(C)C)cc4)CC1)(C3)C2 | inconclusive: 1.12 µM [activator, single point] |
| COc1cccc(CC(=O)Nc2nc(-c3cccnc3)cs2)c1 | inconclusive: 20.6 µM [inhibitor, partial curve, poor fit] |
| CCCNC(=O)CCn1c(-c2ccc(C)cc2)cc(C(=O)OCC)c1C | inactive |
| CCOC(=O)c1c(-c2cccs2)csc1NC(=O)CN1CCOCC1 | inconclusive: 12.6 µM [inhibitor, partial curve, poor fit] |
| Cn1c(SCc2ccccc2Cl)nnc1-c1cnccn1 | inconclusive: 14.6 µM [activator, single point] |
| O=C(NCCc1ccc(F)cc1)C(=O)NCC1CCCN1S(=O)(=O)c1ccccc1 (stereo unspecified) | active: 7.08 µM |
| CC1CCN(C(=O)CSc2nc(-c3ccc(F)cc3)cc(C(F)(F)F)n2)CC1 | inactive |
| O=C1CC(Sc2nnc(-c3ccccc3O)o2)C(=O)N1c1ccccc1 (stereo unspecified) | active: 9.2 µM |
| C#CCn1c(O)c(N=NC(=O)C(O)c2ccccc2)c2ccccc21 (stereo unspecified) | inactive |
| CNC(=O)C1CCC(=O)N1Cc1ccccc1Cl (stereo unspecified) | inconclusive: 0.58 µM [activator, full curve, poor fit] |
| CC1/C(=N/O)CC(c2ccccc2)NC1c1ccccc1 (stereo unspecified) | inactive |
| CCCOc1ccccc1-n1sc2c(c1=S)-c1cc(OC)cc3c1N(C(=O)C3=O)C2(C)C | inconclusive: 12.6 µM [inhibitor, single point] |

A draw from above in order of count of non-hydrogen atoms, low to high.

| SMILES | Potency |
| --- | --- |
| Cc1[nH]c(=O)c(C#N)cc1-c1ccc2nccn2c1 | inconclusive: 0.0326 µM [activator, full curve] |
| Cn1c(SCc2ccccc2Cl)nnc1-c1cnccn1 | inconclusive: 14.6 µM [activator, single point] |
| O=C(NCCCOc1cccc(CN2CCCCC2)c1)c1ccc(Cl)c(Cl)c1 | inconclusive: 11.2 µM [inhibitor, partial curve, poor fit] |
